Test: Circular dichroism spectroscopy
Type: physicochemical
Conditions: for secondary structure by CD: HA-tagged fragment, 20 mM KHPO4, pH 6.8, 12 µM (N-term) or 11 µM (C-term)

For “C-terminal peptide: 28 C-terminal fragment of the Bag-1 peptide (Bag-1L 241–269) (EKIADQLEELNKELTGIQQGFLPKDLQAE; left off: GST, end not stated, kept)”, the “secondary structure by CD” value was “entirely unstructured”.

In the case of “N-terminal peptide: N-terminal 40 residues of the Bag-1 peptide (Bag-1L 202–241) (TPLSALGIQDGCRVMLIGKKNSPQEEVELKKLKHLEKSVE; left off: GST, end not stated, kept)”, the “secondary structure by CD” value is reported as “entirely unstructured”.

B1: Bag-1 peptide: internal sequence of 68 amino acids of Bag-1 (Bag1-L 202–269), HA-tagged, expressed from pcDNA3 (peptide)
chain: TPLSALGIQDGCRVMLIGKKNSPQEEVELKKLKHLEKSVEKIADQLEELNKELTGIQQGFLPKDLQAE
modifications: left off: HA, end not stated, kept
In the case of B1, the α-helical residues (CD estimate) is reported as ~17 residues and the α-helical content (CD, 20 mM KHPO4 buffer, pH 6.8, 20°C, deconvolution) is reported as “approximately 25%”.

— paper PMC3462190, “A Peptidic Unconjugated GRP78/BiP Ligand Modulates the Unfolded Protein Response and Induces Prostate Cancer Cell Death” (PLoS ONE, 2012)
